Test results: publication PMC3568127
These are yes or no findings as the source states them, for the method shown. Some entries that bind do so weakly or less than the wild type. Where a sequence is shown, tags or fusion partners need not be part of it.

Protein sequences, listed by entry. Tags and fused reporters are not part of them. Residues count along the entry.
UniProt O14786, residues 22-923: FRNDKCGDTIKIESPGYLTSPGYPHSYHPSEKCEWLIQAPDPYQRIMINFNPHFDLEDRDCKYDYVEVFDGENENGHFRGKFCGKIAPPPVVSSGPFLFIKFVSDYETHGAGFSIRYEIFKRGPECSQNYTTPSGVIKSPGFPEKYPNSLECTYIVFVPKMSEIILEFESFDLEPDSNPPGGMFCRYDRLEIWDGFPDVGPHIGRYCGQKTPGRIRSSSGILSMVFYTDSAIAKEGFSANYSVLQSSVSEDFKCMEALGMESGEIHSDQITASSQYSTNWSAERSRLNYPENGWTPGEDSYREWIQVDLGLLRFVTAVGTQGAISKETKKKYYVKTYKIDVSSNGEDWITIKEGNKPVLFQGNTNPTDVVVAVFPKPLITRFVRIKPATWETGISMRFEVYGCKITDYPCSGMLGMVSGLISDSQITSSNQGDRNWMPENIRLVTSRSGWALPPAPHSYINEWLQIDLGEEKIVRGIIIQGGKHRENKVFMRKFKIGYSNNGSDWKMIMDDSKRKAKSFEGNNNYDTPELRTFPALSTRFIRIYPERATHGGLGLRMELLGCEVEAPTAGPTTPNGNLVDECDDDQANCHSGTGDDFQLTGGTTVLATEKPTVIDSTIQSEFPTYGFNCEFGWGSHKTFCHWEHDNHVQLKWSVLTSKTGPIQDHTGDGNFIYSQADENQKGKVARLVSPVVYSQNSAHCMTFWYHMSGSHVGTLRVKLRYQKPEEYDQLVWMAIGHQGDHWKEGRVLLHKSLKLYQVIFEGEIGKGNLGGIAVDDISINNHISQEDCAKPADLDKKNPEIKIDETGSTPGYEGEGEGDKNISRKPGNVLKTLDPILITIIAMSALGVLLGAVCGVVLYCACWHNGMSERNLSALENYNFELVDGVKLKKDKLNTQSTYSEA

Molecular target: NRP1 (neuropilin 1) expressed from an adenovirus on DU145 cells (UniProt O14786)
Assay: cell based binding displacement assay (biotinylated ligand, streptavidin-HRP, A450); DU145 cells infected with Ad.NRP1 in 96-well plates; various concentrations of competitor then 1 nM bt-VEGF-A165; binding medium with or without 0.1% BSA; 2 h at room temperature; apparent affinity judged by IC50; only the binder purified

**Q.** For PCGPCSERRKHLFVQDPQTCKCSCKNTDSRCKARQLELNERTCRCDKPRR (domain or fragment), which binding is on record?
**A.** binds

**Q.** PCGPCSERRKHLFVQDPQTCKCSCKNTDSRCKARQLELNERTCRCDKPRR (domain or fragment) [VEGF-A165-HBD with the His6-tag removed] was tested. Which binding did it give?
**A.** binds
